In publication PMC4873633, “Dietary salt regulates uroguanylin expression and signaling activity in the kidney, but not in the intestine” (Physiological Reports, 2016):

Tests used:
[1] = Plasma proUgn by quantitative western blot; format: in vivo, rat; settings: endogenous
[2] = Peptides detectable in urine; format: in vivo, rat; settings: for Presence in urine: high salt, urine overloaded by a factor of 4, C-18 HPLC, binding assay

Row | Molecule | Effect of dietary salt on plasma proUgn ([1]; 3 AM, normal, 5 days low salt, 1, 2 or 5 days high salt) | Nocturnal plasma proUgn higher than diurnal ([1]; NS diet, P < 0.05) | Effect of fasting on plasma proUgn ([1]; standard chow vs 12–24 h fast) | Presence in urine [2] | Presence of intact proUgn in rat urine ([2]; western blot, normal vs five-sixths renal ablation)
1 | prouroguanylin (protein, UniProt P70668 22-106, looked up, pro-form, Recombinant rat proUgn, Ironwood Pharmaceuticals; also endogenous propeptide in plasma) pro-form: VYIKYHGFQVQLESVKKLNELEEKQMSDPQQQKSGLLPDVCYNPALPLDLQPVCASQEAASTFKALRTIATDECELCINVACTGC | strikingly independent of salt intake | 30–40% | indistinguishable from those in animals that had been fasted | not present in urine at detectable levels | detectable in rat urine only after experimentally induced kidney failure
2 | proguanylin (protein, UniProt P28902 24-115, looked up, pro-form, purified recombinant proGn) pro-form: VQDGDLSFPLESVKQLKHLREVQEPTLMSHKKFALRLPKPVAPELCSQSAFPEALRPLCEKPNAEEILQRLEAIAQDPNTCEICAYAACTGC |  |  |  | not present in urine at detectable levels | 
